We go through one molecule from patent US10766889B2, “Aryl-2,2′-tandem bisthiazole compound and preparation method and use thereof” (SHANGHAI INSTITUTE OF MATERIA MEDICA, CHINESE ACADEMY OF …, priority 2016, dated 2020).

Type in all cases: cell-based
The subject of assay [1] is human multiple myeloma cell line RPMI 8226. Nature of the assay: Cell level anti-tumor activity test, CCK-8, multiple myeloma cells. Conditions: 72 h, read-out: IC50 (growth inhibition, RPMI 8226). On the procedure:
The antitumor activity test of the example compounds was carried out, and the in vitro antitumor activities of the compounds were evaluated by measuring the growth inhibitory activities of the compounds against human multiple myeloma cell line 8266.
The RPMI 8226 cell line was obtained from Professor Hou Jian of Shanghai Changzheng Hospital, cultivated under culture conditions: RPMI-1640+10% FBS, routinely cultured in a saturated humidity incubator (Forma Scientific, Inc.) containing 5% CO2 at 37° C. […]
CCK-8 staining method: after the drug was applied, 10 μL of CCK-8 solution was added to each well, and incubated at 37° C. for 3 h. The OD value at 450 nm and 690 nm was measured by microplate reader.
The inhibition rate (% Inhibiton) and activity (% Activity) of the test substance on the proliferation of multiple myeloma cells were calculated according to the following formula, wherein ODsample refers to the absorbance value of the administration hole (OD450-OD690). OD DMSO refers to the absorbance of the DMSO control well (OD450-OD690).
The logarithm of the concentration was plotted against the activity percentage (% Activity), and the fitted curve was calculated by nonlinear regression. The value of IC50 was calculated by using the GraphPad Prism5 software log(inhibitor) vs response—Variable slope parameter setting. […]

In the next assay the test system is Liver cancer BEL-7402. The assay is described as follows: Tumor cell proliferation inhibition, SRB. Conditions: Homo sapiens, Bel-7402, 72 h, read-out: IC50 (mean ± SD) Liver cancer BEL-7402.
A further assay deals with Lung Cancer NCI-H1975. Nature of the assay: Tumor cell proliferation inhibition, SRB. Conditions: Homo sapiens, NCI-H1975, 72 h, read-out: IC50 (mean ± SD) Lung Cancer NCI-H1975.
The subject of another assay is Breast Cancer MCF-7. The assay is described as follows: Tumor cell proliferation inhibition, SRB. Conditions: Homo sapiens, MCF7, 72 h, read-out: IC50 (mean ± SD) Breast Cancer MCF-7.
In a further assay the test system is Breast Cancer MDA-MB-231. Nature of the assay: Tumor cell proliferation inhibition, SRB. Particulars: Homo sapiens, MDA-MB-231, 72 h, read-out: IC50 (mean ± SD) Breast Cancer MDA-MB-231.
The next assay has as its system Breast Cancer T47D. The assay is described as follows: Tumor cell proliferation inhibition, SRB. Particulars: Homo sapiens, 72 h, read-out: IC50 (mean ± SD) Breast Cancer T47D.
In another assay the test system is Stomach cancer NCI-N87. The assay is described as follows: Tumor cell proliferation inhibition, SRB. Particulars: Homo sapiens, NCI-N87, 72 h, read-out: IC50 (mean ± SD) Stomach cancer NCI-N87.
The test system of the next assay is Liver cancer BEL-7404. The assay is described as follows: Tumor cell proliferation inhibition, SRB. Particulars: Homo sapiens, 72 h, read-out: IC50 (mean ± SD) Liver cancer BEL-7404. On the procedure: (§1) The antitumor activity test of the example compounds was carried out, and the in vitro antitumor activities of the compounds were evaluated by measuring the growth inhibitory activities of the compounds against a plurality of human tumor cell lines.
(§2) Tumor cells (except MDA-MB-231) were routinely cultured under 37° C., 5% CO2.
(§3) According to the cell growth rate, the tumor cells in the logarithmic growth phase were inoculated into 96-well culture plates at 90 μL/well, and adherently grown for 24 h and then added with 10 μL/well, and each concentration was set to three replicate wells, and DMSO vehicle controls and cell-free wells at corresponding concentration were also set. Tumor cells (except MDA-MB-231) were cultured for 72 h under conditions of 37° C. and 5% CO2 (MDA-MB-231 cells were cultured at 37° C. without CO2). […] The OD value at 450 nm was measured by a microplate reader. […] After dried by convert placing in an oven, 150 μL of 10 mM Tris solution was added into each well, and the OD value at 560 nm was measured by a microplate reader.
(§4) The inhibition rate of tumor cell proliferation was calculated according to the following formula. The half-inhibition amount IC50 value was calculated by Log it method. […]

A further assay has as its system stomach cancer MKN-74. The assay is described as follows: Tumor cell proliferation inhibition, SRB. Conditions: Homo sapiens, 72 h, read-out: IC50 (mean ± SD) stomach cancer MKN-74. On the procedure: as §1, §2, §3, §4
In the next assay the test system is colon cancer HT-29. Nature of the assay: Tumor cell proliferation inhibition, SRB. Conditions: Homo sapiens, HT-29, 72 h, read-out: IC50 (mean ± SD) colon cancer HT-29.
Assay [2] relates to Embryonic lung cells MRC-5. Nature of the assay: Cell proliferation inhibition, SRB. Particulars: Homo sapiens, MRC5, 72 h, read-out: IC50 (mean ± SD) Embryonic lung cells MRC-5. The protocol:
as §1, §2, §3, §4

The subject of the next assay is lymphoma Ramos. Nature of the assay: Tumor cell proliferation inhibition, CCK-8. Conditions: Homo sapiens, 72 h, read-out: IC50 (mean ± SD) lymphoma Ramos.
Assay [3] deals with Acute lymphoblastic leukemia MOLT-4. Nature of the assay: Tumor cell proliferation inhibition, CCK-8. Conditions: Homo sapiens, 72 h, read-out: IC50 (mean ± SD) Acute lymphoblastic leukemia MOLT-4. The protocol:
as §1, §2
(§5) According to the cell growth rate, the tumor cells in the logarithmic growth phase were inoculated into 96-well culture plates at 90 μL/well, and adherently grown for 24 h and then added with 10 μL/well, and each concentration was set to three replicate wells, and DMSO vehicle controls and cell-free wells at corresponding concentration were also set. Tumor cells (except MDA-MB-231) were cultured for 72 h under conditions of 37° C. and 5% CO2 (MDA-MB-231 cells were cultured at 37° C. without CO2). After the drug was applied, 10 μL of CCK-8 solution was added to each well in Ramos, HL-60, Molt-4, Raji, CCRF-CEM, and SU-DHL-6 tumor cell line experiments, and incubated at 37° C. for 2 h. The OD value at 450 nm was measured by a microplate reader. In the BEL-7402, BEL-7404, A549, NCI-H1975, EBC-1, MCF-7, MDA-MB-231, T47D, NCI-N87, MKN-74, HT-29 and MRC-5 tumor cell line experiments, the cell culture solution in the culture plate was discarded, and 10% (w/v) trichloroacetic acid (100 pt/well) was added and fixed at 4° C. for 1 h, and then rinsed with distilled water for five times. After dried by convert placing in an oven, the plate was taken out and 100 μL of SRB solution (4 mg/mL SRB powder dissolved in 1% glacial acetic acid) was added into each well. After standed at room temperature for 15 minutes, it was washed five times with 1% glacial acetic acid to completely remove the SRB which has not bounded to the plate protein. After dried by convert placing in an oven, 150 μL of 10 mM Tris solution was added into each well, and the OD value at 560 nm was measured by a microplate reader.
(§6) The inhibition rate of tumor cell proliferation was calculated according to the following formula. The half-inhibition amount IC50 value was calculated by Log it method. Inhibition rate=(control group OD value−administration group OD value)/control group OD value×100%. Each set of experiments was repeated three times independently, while 3 replicate wells per concentration.

Assay [4] concerns Acute lymphocytic leukemia T lymphocyte CCRF. The assay is described as follows: Tumor cell proliferation inhibition, CCK-8. Conditions: Homo sapiens, 72 h, read-out: IC50 (mean ± SD) Acute lymphocytic leukemia T lymphocyte CCRF. On the procedure: as §1, §2, §5, §6
Assay [5] relates to Human blood lymphoma Raji. The assay is described as follows: Tumor cell proliferation inhibition, CCK-8. Conditions: 72 h, read-out: IC50 (mean ± SD) Human blood lymphoma Raji. The protocol:
as §1, §2, §5, §6

The subject of another assay is promyeloid leukemia HL60. The assay is described as follows: Tumor cell proliferation inhibition, CCK-8. Conditions: Homo sapiens, HL-60, 72 h, read-out: IC50 (mean ± SD) promyeloid leukemia HL60. On the procedure:
as §1, §2, §5, §6

In the next assay the test system is lymphoma SU-DHL-6. The assay is described as follows: Tumor cell proliferation inhibition, CCK-8. Conditions: Homo sapiens, SU-DHL-6, 72 h, read-out: IC50 (mean ± SD) lymphoma SU-DHL-6.

A word on the IC50: it is the concentration that gives 50% inhibition. For the molecule `O=C(CCCCCCC(=O)Nc1ccccc1)NO` [SAHA, vorinostat], the IC50 in assay [1] worked out at 1 ± 0.35 µM; in the assay on Liver cancer BEL-7402 it was 2.78 ± 0.0932 µM; in the assay on Lung Cancer NCI-H1975 it was 1.99 ± 0.302 µM; in the assay on Breast Cancer MCF-7, 0.883 ± 0.0699 µM; with Breast Cancer MDA-MB-231, 3.12 ± 0.434 µM; with Breast Cancer T47D it was 0.962 ± 0.112 µM. For the same molecule, the IC50 in the assay with Stomach cancer NCI-N87 worked out at 1.08 ± 0.0862 µM; with Liver cancer BEL-7404, 2.81 ± 0.187 µM; with stomach cancer MKN-74, 3.02 ± 0.253 µM; in the assay with colon cancer HT-29, 1.33 ± 0.0202 µM; in [2] it was 5.1 ± 0.829 µM; in the assay with lymphoma Ramos, 1.62 ± 0.0356 µM. In addition, the half-maximal inhibitory concentration (IC50) in assay [3] worked out at 1.21 ± 0.0331 µM; in [4] it was 1.53 ± 0.171 µM; in assay [5] it was 1.01 ± 0.0379 µM; with promyeloid leukemia HL60, 1.12 ± 0.0709 µM; with lymphoma SU-DHL-6, 0.787 ± 0.0237 µM.
